Assay results taken from PubChem BioAssay AID504467 (National Center for Advancing Translational Sciences (NCATS), 2011).
The campaign covered roughly 330,000 compounds. About 7,700 (2.3%) were called active. The inconclusive results got no clear call from the source; some entries with a clear call stand among them for comparison. The call rests on the fitted dose curve; in most records, active means well fitted inhibition curve with a large enough effect; inconclusive means small, poorly fitted or top-dose-only effect, or effect the other way; inactive means flat fitted curve, though single readings scatter. A potency beside an inconclusive call is a rough fit, not a confirmed value.

Experiment: qHTS screen for small molecules that inhibit ELG1-dependent DNA repair in human embryonic kidney (HEK293T) cells expressing luciferase-tagged ELG1; further: nearly all actives have a fitted effect of over 55% in size
Conditions: HEK293T ELG1-luciferase reporter, luminescence, 16 h, DNA damage induced by 5-fluorouridine; activity change, negative = inhibition: at 46.1 µM (top of the series)
In short: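 Quantitative HTS, concentration-response format. 2,000 cells/well co-treated with 5-fluorouridine and compound, 16 hr in 5% CO2 at 37 °C; ONE-Glo luminescence read after 30 min.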
On the % scale 0 is the no-effect control and ±100 the full control effect; potency means the concentration at half of the fitted maximal effect.

SMILES | activity change, negative = inhibition | Potency
CC(C)CC1c2[nH]c3ccccc3c2CCN1C(=O)CCC(=O)N(C)C (stereo not drawn) | inactive: -3.05% | –
Nc1nc(NCCCN2CCOCC2)nc(Nc2cccc(Cl)c2)c1[N+](=O)[O-] | – | inconclusive: 20.6 µM [inhibitor, partial curve, poor fit]
Cc1ccn(CC(=O)N/N=C/c2cc([N+](=O)[O-])ccc2O)n1 | – | inconclusive: 20.6 µM [inhibitor, single point]
Cc1c(C(=O)NCC2COc3ccccc3O2)oc2ccc(S(=O)(=O)N3CC(C)CC(C)C3)cc12 (stereo not drawn) | – | inconclusive: 8.2 µM [inhibitor, partial curve]
COc1cccc(C2=NOC(C(=O)N3CCOCC3)C2)c1 (stereo not drawn) | – | inconclusive: 23.1 µM [activator, single point]
COC(=O)c1ccc(CC(=O)c2nc3ccccc3s2)cc1 | – | inconclusive: 14.6 µM [activator, partial curve]
Oc1ccc(Nc2ccnc3cc(Cl)ccc23)cc1 | – | inconclusive: 29.1 µM [activator, partial curve, poor fit]
O=S1(=O)C=CC(Sc2nc3ccccc3[nH]2)C1 (stereo not drawn) | inactive: 0% | –
Cc1noc(C)c1NC(=O)Nc1ccc2c(c1)C(=O)N([C@H](C)CO)C[C@H](C)[C@@H](CN(C)C(=O)Nc1c(C)noc1C)O2 | – | inconclusive: 25.9 µM [activator, partial curve, poor fit]
O=C(CSc1ccccc1)N1CCN(c2ccccn2)CC1 | – | inconclusive: 29.1 µM [activator, single point]
O=C(N/N=C/c1cc2c(cc1Br)OCO2)c1cc2ccccc2o1 | – | inconclusive: 6.51 µM [activator, single point]
COc1ccc(Nc2cc(C(=O)NC3CCCC3)c3ccccc3n2)c(OC)c1 | inactive: -2.98% | –
CCOc1ccc(NC(=O)CCc2nnc3ccc(N4CCN(C)CC4)nn23)cc1 | – | inconclusive: 20.6 µM [activator, partial curve]
COCCn1c(SCC(=O)Nc2cc(C)on2)nc2ccccc2c1=O | – | inconclusive: 35.5 µM [inhibitor, single point]
Cc1c(N=Cc2c(O)n(Cc3ccco3)c(=O)c3ccccc23)c(=O)n(-c2ccccc2)n1C | – | active: 23.1 µM
COc1ccc(CCN(C)S(=O)(=O)c2ccc(Cl)nc2)cc1OC | – | inconclusive: 16.4 µM [inhibitor, partial curve, poor fit]
O=C(CCS(=O)(=O)c1ccccc1)N1CCOCC1 | – | inconclusive: 29.1 µM [activator, single point]
CCn1cc(S(=O)(=O)NCCc2ccc(F)cc2)cn1 | inactive: 24.9% | –

3 entries from above, arranged by molecular weight, ascending:
SMILES | activity change, negative = inhibition | Potency
Oc1ccc(Nc2ccnc3cc(Cl)ccc23)cc1 | – | inconclusive: 29.1 µM [activator, partial curve, poor fit]
O=C(CSc1ccccc1)N1CCN(c2ccccn2)CC1 | – | inconclusive: 29.1 µM [activator, single point]
CC(C)CC1c2[nH]c3ccccc3c2CCN1C(=O)CCC(=O)N(C)C (stereo not drawn) | inactive: -3.05% | –
